Experiment [1] has as its system SARS-CoV-2 -1 PRF reporter mCherry-FSE-GFP(-1). Description: mCherry (red) intensity as percent of control; higher = higher upstream reporter expression. Particulars: 10 µM; 24 h; HEK293T.
The test system is the same in experiment [2]. Description: percent effect, decrease of GFP/mCherry ratio (-1 PRF reporter) relative to controls; higher = stronger frameshift inhibition. Particulars: 10 µM; 24 h; HEK293T.

The structures appear in SMILES notation. Several values for one entry are separate records, joined by “and”; a condition that tells them apart may be missing. Equal entries are not always repeated. Some of the results follow. Repeats in this data set agree poorly, so a single value says little.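 HEK293T cells were given each compound shortly before transfection with a reporter in which red mCherry is followed by the SARS-CoV-2 frameshift element and then GFP in the −1 frame, so GFP appears only after frameshifting.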

In the supplement of paper PMC8256030 one finds mCherry and percent effect data, which are given here for 14 molecules.

`OCc1ccccc1O[C@@H]1O[C@H](CO)[C@@H](O)[C@H](O)[C@H]1O`: the mCherry in experiment [1] worked out at 91.1%. Also, the percent effect in experiment [2] is -2.57%.
Taken in the same sequence, the figures for `COc1cc2c3cc1Oc1cc(ccc1O)C[C@@H]1c4c(cc(OC)c(O)c4Oc4ccc(cc4)C[C@@H]3N(C)CC2)CC[N+]1(C)C` were 92.1% and 1.69%.
The like results for `CNC(=O)COc1cc2cc(Nc3nc(N4CCC(C(=O)N(C)C)CC4)ncc3Cl)cc(OC)c2n(C)c1=O` were, in that order, 108% and -5.4%.
For `CC(C)Nc1nc2cc(Cl)c(Cl)cc2n1[C@H]1O[C@@H](CO)[C@H](O)[C@@H]1O` [maribavir], the mCherry in experiment [1] came to 101%. In addition, the percent effect in experiment [2] is -2.25%.
For `N[C@@H](Cn1ccc(=O)c(O)c1)C(=O)O`, the mCherry in experiment [1] was 126% and 141%. In experiment [2], the percent effect is -5.48% and 1.23%.
In the case of `CCN(CC)C(C)CC(=O)Nc1ccccc1` (stereo not drawn) [octacaine], in experiment [1], the mCherry was 71.4%. For the same molecule, in experiment [2], the percent effect is -2.9%.
Taken in the same sequence, the figures for `C=C1CC[C@H](O)C/C1=C/C=C1\CCC[C@]2(C)[C@@H]([C@H](C)CC[C@@H](O)C(C)(C)O)CC[C@@H]12` [secalciferol] were 103% and -1.38%.
`CS(=O)(=O)OCCCCOS(C)(=O)=O` [busulfan] gave a mCherry in experiment [1] of 92.8%. Also, the percent effect in experiment [2] is -3.89%.
Taken in the same sequence, the figures for `CC1=C(/C=C/C(C)=C/C=C/C(C)=C/CO)C(C)(C)CCC1` [retinol] were 82.2% and -4.58%.
On to `CCCCCCCC/C=C\CCCCCCCC(=O)O.NCCO`, for which the mCherry in experiment [1] came out at 107%. Also, the percent effect in experiment [2] was -2.67%.
Molecule `Cc1c(NC(C)C)c(=O)n(-c2ccccc2)n1C` [ramifenazone] returned a mCherry in experiment [1] of 47.2%. In addition, in experiment [2], the percent effect is -1.6%.
The like results for `CCN(Cc1ccncc1)C(=O)C(CO)c1ccccc1` (stereo not drawn) were, in that order, 95.6% and -3.41%.
`CCCNC(C)(C)COC(=O)c1ccccc1` came in with a mCherry in experiment [1] of 91.9%. Besides, the percent effect in experiment [2] was -2.28%.
The like results for `Cc1ncc([N+](=O)[O-])n1C` [dimetridazole] were, in that order, 107% and 0.12%.
